Laboratory results published in PMC6510753.
No constants are given. Whether binding was seen depends on the method and setting. Binding seen in cells or lysates may run through a third protein. Binding calls can cover weak binding; strength is not graded here. Sequences can lack the tags named with a protein.

Molecular target: free fatty acid receptor 1 (FFAR1)
Experiment: co-IP; HEK293 co-transfected with PDE4A5-vsv, GPR40 and arrestin-2; cells treated with 500 μM palmitic acid for various times; lysates in 1% Nonidet P-40, 150 mM NaCl, 1 mM EDTA, 10 mM Tris-HCl pH 8.0; IP with anti-Flag, immunoblot with anti-Vsv and ARB2

B1: phosphodiesterase 4A5 (PDE4A5), VSV-tagged (enzyme, UniProt P54748-1 1-844)
chain: MEPPAAPSERSLSLSLPGPREGQATLKPPPQHLWRQPRTPIRIQQRGYPDSAERSETERSPHRPIERADAVDTGDRPGLRTTRMSWPSSFHGTGTGGGSSRRLEAENGPTPSPGRSPLDSQASPGLVLHAGATTSQRRESFLYRSDSDYDMSPKAVSRSSSVASEAHAEDLIVTPFAQVLASLRSVRSNFSLLTNVPIPSNKRSPLGGPPSVCKATLSEETCQQLARETLEELDWCLEQLETMQTYRSVSEMASHKFKRMLNRELTHLSEMSRSGNQVSEYISNTFLDKQNEVEIPSPTPRQRAFQQPPPSVLRQSQPMSQITGLKKLVHTGSLNTNVPRFGVKTDQEDLLAQELENLSKWGLNIFCVSEYAGGRSLSCIMYTIFQERDLLKKFHIPVDTMMMYMLTLEDHYHADVAYHNSLHAADVLQSTHVLLATPALDAVFTDLEILAALFAAAIHDVDHPGVSNQFLINTNSELALMYNDESVLENHHLAVGFKLLQEENCDIFQNLSKRQRQSLRKMVIDMVLATDMSKHMTLLADLKTMVETKKVTSSGVLLLDNYSDRIQVLRNMVHCADLSNPTKPLELYRQWTDRIMAEFFQQGDRERERGMEISPMCDKHTASVEKSQVGFIDYIVHPLWETWADLVHPDAQDILDTLEDNRDWYHSAIRQSPSPPLEEEPGGLGHPSLPDKFQFELTLEEEEEEDSLEVPGLPTTEETFLAAEDARAQAVDWSKVKGPSTTVVEVAERLKQETASAYGAPQESMEAVGCSFSPGTPILPDVRTLSSSEEAPGLLGLPSTAAEVEAPRDHLAATRACSACSGTSGDNSAIISAPGRWGSGGDPA
binding: binds
